Laboratory results: PMC8384837
Where a chain is given by its changes, count along the chain named. The list shows a part of the results. For some assays here: At the low end of the ranking, values are background and their order means little.

Key:
Settings in all cases: yeast three-hybrid, YBZ-1, SC-Leu-His + 0.5 mM 3-AT, 4 days
[1] = biological target: T1, PUM1 PUF domain R3-WYR C935W + R936Y + Q939R (Homo sapiens) (UniProt Q14671)
T1 sequence: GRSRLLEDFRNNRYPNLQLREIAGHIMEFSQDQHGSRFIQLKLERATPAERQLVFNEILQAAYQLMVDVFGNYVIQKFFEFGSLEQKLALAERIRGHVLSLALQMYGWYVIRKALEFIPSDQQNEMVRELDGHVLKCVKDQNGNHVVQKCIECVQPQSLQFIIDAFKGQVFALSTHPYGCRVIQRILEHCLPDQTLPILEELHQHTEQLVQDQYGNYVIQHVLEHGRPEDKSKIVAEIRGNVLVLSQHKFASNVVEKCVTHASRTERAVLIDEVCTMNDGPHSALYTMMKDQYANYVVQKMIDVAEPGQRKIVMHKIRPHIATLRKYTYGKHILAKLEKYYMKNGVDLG

[2] = biological target: T2, PUM1 PUF domain R3-YCD C935Y + R936C + Q939D (UniProt Q14671)
T2 sequence: T1 sequence with W108Y, Y109C, R112D

[3] = biological target: T3, PUM1 PUF domain R3-YCV C935Y + R936C + Q939V (UniProt Q14671)
T3 sequence: T1 sequence with W108Y, Y109C, R112V

[4] = biological target: T4, PUM1 PUF domain R3-YPR C935Y + R936P + Q939R (Homo sapiens) (UniProt Q14671)
T4 sequence: T1 sequence with W108Y, Y109P

[5] = biological target: T5, PUM1 PUF domain R3-YRC C935Y + Q939C (Homo sapiens) (UniProt Q14671)
T5 sequence: T1 sequence with W108Y, Y109R, R112C

[6] = biological target: T6, PUM1 PUF domain R3-YRE C935Y + Q939E (UniProt Q14671)
T6 sequence: T1 sequence with W108Y, Y109R, R112E

[7] = biological target: T7, PUM1 PUF domain R3-YRR C935Y + Q939R (Homo sapiens) (UniProt Q14671)
T7 sequence: T1 sequence with W108Y, Y109R

[8] = biological target: T8, PUM1 PUF domain R3-YWF C935Y + R936W + Q939F (Homo sapiens) (UniProt Q14671)
T8 sequence: T1 sequence with W108Y, Y109W, R112F

[9] = biological target: T9, PUM1 PUF domain R4-ANA N971A + H972N + Q975A (Homo sapiens) (UniProt Q14671)
T9 sequence: T1 sequence with W108C, Y109R, R112Q, N144A, H145N, Q148A

[10] = biological target: T10, PUM1 PUF domain R4-ANC N971A + H972N + Q975C (Homo sapiens) (UniProt Q14671)
T10 sequence: T1 sequence with W108C, Y109R, R112Q, N144A, H145N, Q148C

[11] = biological target: T11, PUM1 PUF domain R4-ANL N971A + H972N + Q975L (Homo sapiens) (UniProt Q14671)
T11 sequence: T1 sequence with W108C, Y109R, R112Q, N144A, H145N, Q148L

[12] = biological target: T12, PUM1 PUF domain R4-ANT N971A + H972N + Q975T (Homo sapiens) (UniProt Q14671)
T12 sequence: T1 sequence with W108C, Y109R, R112Q, N144A, H145N, Q148T

[13] = biological target: T13, PUM1 PUF domain R4-APR N971A + H972P + Q975R (Homo sapiens) (UniProt Q14671)
T13 sequence: T1 sequence with W108C, Y109R, R112Q, N144A, H145P, Q148R

[14] = biological target: T14, PUM1 PUF domain R4-ARR N971A + H972R + Q975R (Homo sapiens) (UniProt Q14671)
T14 sequence: T1 sequence with W108C, Y109R, R112Q, N144A, H145R, Q148R

[15] = biological target: T15, PUM1 PUF domain R4-CPC N971C + H972P + Q975C (Homo sapiens) (UniProt Q14671)
T15 sequence: T1 sequence with W108C, Y109R, R112Q, N144C, H145P, Q148C

[16] = biological target: T16, PUM1 PUF domain R4-DFR N971D + H972F + Q975R (Homo sapiens) (UniProt Q14671)
T16 sequence: T1 sequence with W108C, Y109R, R112Q, N144D, H145F, Q148R

[17] = biological target: T17, PUM1 PUF domain R4-DHR N971D + Q975R (Homo sapiens) (UniProt Q14671)
T17 sequence: T1 sequence with W108C, Y109R, R112Q, N144D, Q148R

[18] = biological target: T18, PUM1 PUF domain R4-EHR N971E + Q975R (Homo sapiens) (UniProt Q14671)
T18 sequence: T1 sequence with W108C, Y109R, R112Q, N144E, Q148R

[19] = biological target: T19, PUM1 PUF domain R4-ERQ N971E + H972R (UniProt Q14671)
T19 sequence: T1 sequence with W108C, Y109R, R112Q, N144E, H145R

[20] = biological target: T20, PUM1 PUF domain R4-EYR N971E + H972Y + Q975R (Homo sapiens) (UniProt Q14671)
T20 sequence: T1 sequence with W108C, Y109R, R112Q, N144E, H145Y, Q148R

Q: For “GGCUAGAACUAGUGGAUCCCCCGGCGCCCGGCGGCUCGAGCCCGGGUAAGUGUAAAUAGUCUGCAUGCCGCCGGGCGCCAUGCCUGCAGGUCGACUCUAGAAAACAUG”, which binding signal (log2 enrichment (interaction score)) [1] is on record?
A: -1.04

Q: And the binding signal (log2 enrichment (interaction score)) [2]?
A: < -7.28

Q: And the binding signal (log2 enrichment (interaction score)) [3]?
A: < -8.18

Q: And the binding signal (log2 enrichment (interaction score)) [4]?
A: -2.2

Q: What about the binding signal (log2 enrichment (interaction score)) [5] of the same sequence?
A: -0.21

Q: And the binding signal (log2 enrichment (interaction score)) [6]?
A: -6.64

Q: And the binding signal (log2 enrichment (interaction score)) [7]?
A: -0.85

Q: And the binding signal (log2 enrichment (interaction score)) [8]?
A: 0.74

Q: And the binding signal (log2 enrichment (interaction score)) [9]?
A: 0.46

Q: And the binding signal (log2 enrichment (interaction score)) [10]?
A: -0.15

Q: What about the binding signal (log2 enrichment (interaction score)) [11] of the same sequence?
A: -1.18

Q: And the binding signal (log2 enrichment (interaction score)) [12]?
A: -1.11

Q: And the binding signal (log2 enrichment (interaction score)) [13]?
A: -0.01

Q: What about the binding signal (log2 enrichment (interaction score)) [14] of the same sequence?
A: -3.49

Q: And the binding signal (log2 enrichment (interaction score)) [15]?
A: 0.42

Q: And the binding signal (log2 enrichment (interaction score)) [16]?
A: 0.04

Q: And the binding signal (log2 enrichment (interaction score)) [17]?
A: 0.04

Q: What about the binding signal (log2 enrichment (interaction score)) [18] of the same sequence?
A: -0.53

Q: And the binding signal (log2 enrichment (interaction score)) [19]?
A: < -5.36

Q: What about the binding signal (log2 enrichment (interaction score)) [20] of the same sequence?
A: -0.74
